Measurements from publication PMC9894248, “Alanine synthesized by alanine dehydrogenase enables ammonium-tolerant nitrogen fixation in Paenibacillus sabinae T27”.
For at least one entry, the source does not settle the construct or the ends of the probe. For some assays here: A weaker result is weaker than the reference pair of the same experiment. Where a protein sequence is shown, tags need not be part of it.

Legend:
[1] = target: T1, GlnR (Paenibacillus sabinae T27) (UniProt X4ZZY3); experiment: SPR; settings: GlnR alone, 0-500 nM, binds with lower affinity than site I; SPR: SA chip, 250 RU DNA, GlnR 0-500 nM with or without 25 nM GS; recombinant protein; protein details: N-His6; label: 5' biotin on capture linker S3
T1 sequence (looked up, limits assumed): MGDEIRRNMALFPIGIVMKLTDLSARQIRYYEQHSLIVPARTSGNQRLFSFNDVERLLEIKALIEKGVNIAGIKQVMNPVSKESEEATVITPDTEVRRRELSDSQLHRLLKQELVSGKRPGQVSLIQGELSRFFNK

[2] = target: T1, GlnR (Paenibacillus sabinae T27); experiment: EMSA; settings: GlnR 2-256 nM without FBI-GS, lower affinity than with FBI-GS; EMSA: 20 ul, 1 ug poly[d(A-T)], 0.3 nM probe, 30 min, 25 C; binding buffer (given for protein dialysis) 20 mM HEPES pH 7.6, 1 mM EDTA, 10 mM (NH4)2SO4, 1 mM DTT; recombinant protein; protein details: N-His6; label: 3' DIG (Methods), biotin (Fig. S6 legend)

“AAGGTTGGAGTCAGGTTAACTGACACGTCGGATGTAGGT / ACCTACATCCGACGTGTCAGTTAACCTGACTCCAACCTTCCTACCCTACGTCCTCCTGC / GCAGGAGGACGTAGGGTAGG [SPR probe GlnR site II (TS2)]”: binds more weakly [1].

“TTTTCAAGAAAGGTTGGAGTCAGGTTAACTGACACGTCGGATG (double strand) [nif promoter GlnR site II EMSA probe (nifR2)]”: binds [2].
